Data published in patent publication US11407756B2, “Heterocyclic compounds and noxious arthropod control agent containing same” (SUMITOMO CHEMICAL COMPANY, LIMITED, priority 2017, dated 2022).
Some results were stated once for a whole list of compounds, not compound by compound. At least one compound was matched to its structure with a doubt left.

Key:
[1] = test system: cotton aphids (Aphis gossypii); assay: Test method 2: plant foot irrigation of cucumber seedlings, cotton aphids released after 7 days; assay type: in vivo; details: 1000 ppm, irrigation 5 mL/seedling, counted after additional 6 days, 25° C.
[2] = test system: cotton aphids (Aphis gossypii); assay: Test method 1: foliar spray of cucumber seedlings infested with cotton aphids; assay type: in vivo; details: spray 10 mL/seedling, counted 5 days after spraying, 25° C.

For `CCS(=O)(=O)c1cccnc1-n1ccn2cc(C(F)(F)F)nc2c1=O` [compound 1], the controlling value [1] was at least 90%, the controlling value ([2]; 200 ppm) was at least 90% and the controlling value ([2]; 500 ppm) was at least 90%.
Work on `CCS(=O)(=O)c1cc(C2CC2)cnc1-n1ccn2cc(C(F)(F)F)nc2c1=O` [compound 2] yielded a controlling value [1] of at least 90%, a controlling value ([2]; 200 ppm) of at least 90% and a controlling value ([2]; 500 ppm) of at least 90%.
With `CCS(=O)(=O)c1cc(C(F)(F)F)cnc1-n1ccn2cc(C(F)(F)F)nc2c1=O` [compound 3] the controlling value [1] was at least 90%, the controlling value ([2]; 200 ppm) was at least 90% and the controlling value ([2]; 500 ppm) was at least 90%.
In the case of `CCS(=O)(=O)c1cccnc1-n1ccc2nc(C(F)(F)F)cn2c1=O` [compound 4], the controlling value [1] is reported as at least 90%, the controlling value ([2]; 200 ppm) is reported as at least 90% and the controlling value ([2]; 500 ppm) is reported as at least 90%.
In the case of `CCS(=O)(=O)c1cc(C2CC2)cnc1-n1ccc2nc(C(F)(F)F)cn2c1=O` [compound 5], the controlling value [1] is reported as at least 90%, the controlling value ([2]; 200 ppm) is reported as at least 90% and the controlling value ([2]; 500 ppm) is reported as at least 90%.
With `CCS(=O)(=O)c1cc(C(F)(F)F)cnc1-n1ccc2nc(C(F)(F)F)cn2c1=O` [compound 6] the controlling value [1] was at least 90% and the controlling value ([2]; 200 ppm) was at least 90%.
`CCS(=O)(=O)c1cccnc1-n1ccn2nc(C(F)(F)F)cc2c1=O` [compound 7] was tested, and the controlling value [1] was at least 90%, the controlling value ([2]; 200 ppm) was at least 90% and the controlling value ([2]; 500 ppm) was at least 90%.
Molecule `CCS(=O)(=O)c1cc(C2CC2)cnc1-n1ccn2nc(C(F)(F)F)cc2c1=O` [compound 8] has a controlling value [1] of at least 90% and a controlling value ([2]; 200 ppm) of at least 90%.
With `CCS(=O)(=O)c1cc(Br)cnc1-n1ccc2nc(C(F)(F)F)cn2c1=O` [compound 9] the controlling value [1] was at least 90%, the controlling value ([2]; 200 ppm) was at least 90% and the controlling value ([2]; 500 ppm) was at least 90%.
For `CCS(=O)(=O)c1cc(-c2ccc(F)cc2)cnc1-n1ccc2nc(C(F)(F)F)cn2c1=O` [compound 10], the controlling value ([2]; 200 ppm) was at least 90% and the controlling value ([2]; 500 ppm) was at least 90%.
`CCOc1cnc(-n2ccc3nc(C(F)(F)F)cn3c2=O)c(S(=O)(=O)CC)c1` [compound 11] was tested, and the controlling value [1] was at least 90%, the controlling value ([2]; 200 ppm) was at least 90% and the controlling value ([2]; 500 ppm) was at least 90%.
In the case of `CCS(=O)(=O)c1cc(OC(C)C)cnc1-n1ccc2nc(C(F)(F)F)cn2c1=O` [compound 12], the controlling value [1] is reported as at least 90%, the controlling value ([2]; 200 ppm) is reported as at least 90% and the controlling value ([2]; 500 ppm) is reported as at least 90%.
With `CCCOc1cnc(-n2ccc3nc(C(F)(F)F)cn3c2=O)c(S(=O)(=O)CC)c1` [compound 13] the controlling value [1] was at least 90%, the controlling value ([2]; 200 ppm) was at least 90% and the controlling value ([2]; 500 ppm) was at least 90%.
`CCS(=O)(=O)c1cc(OCC(F)(F)F)cnc1-n1ccc2nc(C(F)(F)F)cn2c1=O` [compound 14] was tested, and the controlling value [1] was at least 90%, the controlling value ([2]; 200 ppm) was at least 90% and the controlling value ([2]; 500 ppm) was at least 90%.
With `CCS(=O)(=O)c1cccnc1-n1ccc2nc(C(F)(F)C(F)(F)F)cn2c1=O` [compound 15] the controlling value [1] was at least 90%, the controlling value ([2]; 200 ppm) was at least 90% and the controlling value ([2]; 500 ppm) was at least 90%.
In the case of `CCS(=O)(=O)c1cc(Br)cnc1-n1ccc2nc(C(F)(F)C(F)(F)F)cn2c1=O` [compound 16], the controlling value [1] is reported as at least 90%, the controlling value ([2]; 200 ppm) is reported as at least 90% and the controlling value ([2]; 500 ppm) is reported as at least 90%.
Molecule `CCS(=O)(=O)c1cc(C2CC2)cnc1-n1ccc2nc(C(F)(F)C(F)(F)F)cn2c1=O` [compound 17] has a controlling value [1] of at least 90%, a controlling value ([2]; 200 ppm) of at least 90% and a controlling value ([2]; 500 ppm) of at least 90%.
Work on `CCS(=O)(=O)c1cccnc1-n1ccc2nc(C(F)(F)F)nn2c1=O` [compound 20] yielded a controlling value ([2]; 200 ppm) of at least 90% and a controlling value ([2]; 500 ppm) of at least 90%.
With `CCS(=O)(=O)c1cc(C2CC2)cnc1-n1ccc2nc(C(F)(F)F)nn2c1=O` [compound 21] the controlling value [1] was at least 90% and the controlling value ([2]; 200 ppm) was at least 90%.
With `CCS(=O)(=O)c1cc(C2CC2)cnc1-n1cc(Br)n2nc(C(F)(F)F)cc2c1=O` [compound 22] the controlling value ([2]; 200 ppm) was at least 90% and the controlling value ([2]; 500 ppm) was at least 90%.
For `CCS(=O)(=O)c1cc(C2CC2)cnc1-n1cc(Cl)n2nc(C(F)(F)F)cc2c1=O` [compound 23], the controlling value ([2]; 200 ppm) was at least 90% and the controlling value ([2]; 500 ppm) was at least 90%.
In the case of `CCS(=O)(=O)c1cc(C2CC2)cnc1-n1ccn2nc(C(F)(F)F)c(Br)c2c1=O` [compound 24], the controlling value [1] is reported as at least 90% and the controlling value ([2]; 200 ppm) is reported as at least 90%.
Work on `CCS(=O)(=O)c1cc(C2CC2)cnc1-n1ccn2nc(C(F)(F)F)c(Cl)c2c1=O` [compound 25] yielded a controlling value ([2]; 200 ppm) of at least 90% and a controlling value ([2]; 500 ppm) of at least 90%.
